For this experiment, the system named is orthotopic GB126 tumors. Kind of experiment: Bioluminescence imaging of tumor burden, orthotopic GB126 PDX. The experiment is classed as in vivo, athymic nude mice. The settings on record: individual mice. The protocol: We additionally questioned whether QST, either alone or in combination with IR, could extend the survival of tumor-bearing mice. In this study, mice received the same treatments described above, but after completion of the 1-week IR regimen, mice continued to receive QST at 10 mg/kg or vehicle solution on MWF until study completion, as determined by large tumor burden and onset of neurological symptoms (Figure 8A). […] Although QST monotherapy slowed tumor growth, median survival for the QST-treated mice was only 4 days longer than for the vehicle-treated mice (P < 0.01), and IR alone increased median survival by 17 days (P < 0.001; Figure 8D). However, combining QST with IR led to a significant increase in median survival (37 days, P < 0.001) compared with the vehicle (Figure 8D). […]
Rad225XL irradiator (Precision X -Ray). […]
Live Bioluminescence Imaging
Two weeks after implantation, mice were examined for tumor growth by monitoring bioluminescence every 7 days using the IVIS Xenogen Spectrum platform. D -Luciferin Potassium Salt (Gold Biotechnology) was dissolved in PBS at a final concentration of 15 mg/mL. All mice were weighed each week and administered D -Luciferin via an intraperitoneal injection (10 μl/g). Fifteen minutes after injection, the mice were sedated using gaseous isoflurane (Piramal) and placed inside an IVIS Spectrum in vivo imaging system (Perkin Elmer) […]
for bioluminescence imaging. The total flux (photons/second) within the region of interest was calculated using the Living Image software 4.5 (Perkin Elmer).
Preparation of QST for In Vivo Use
For in vivo preparation, QST was dissolved in 50% polyethylene glycol (PEG) 300, 50% sterile water solution for 10 mg/kg dosing. The suspension was then sonicated for 10 minutes to allow the drug to completely dissolve. Finally, the pH of both the drug and the vehicle solutions was adjusted to 7.4 before intraperitoneal dosing. […]
In Vivo Irradiation Studies
Intracranial or flank tumor–bearing nude mice were sedated with gaseous isoflurane before
IR. On the first week of treatment, 2 hours after treatment with QST or vehicle, the mice were […]

Several values for one entry are separate records, joined by “and”; a condition that tells them apart may be missing. Equal values may be shown once. The source gives many values for each of these; only a part stands here.

For the molecule `Cn1cc(CNCC2CCN(c3ncc(C(=O)NO)cn3)CC2)c2ccccc21` [QST, quisinostat], the “IVIS imaging, bioluminescence” value was 26800000 photons/seconds and 37200000 photons/seconds and 120000 photons/seconds and 14500000 photons/seconds and 62700000 photons/seconds and 53400000 photons/seconds and 14400000 photons/seconds and 172000 photons/seconds and 4050000 photons/seconds and 3070000 photons/seconds (Qstat 10 mg/kg + IR 6 Gy, day 15 post Tx start); 9630000 photons/seconds and 31100000 photons/seconds and 54800000 photons/seconds and 12000000 photons/seconds and 57600000 photons/seconds and 1060000 photons/seconds and 9290000 photons/seconds (2×) and 3550000 photons/seconds and 41500000 photons/seconds (Qstat 10 mg/kg + IR 6 Gy, day 22 post Tx start); 50000000 photons/seconds and 4160000 photons/seconds and 3400000 photons/seconds and 1340000 photons/seconds (Qstat 10 mg/kg alone, day 15 post Tx start); 158000000 photons/seconds and 3200000000 photons/seconds and 263000000 photons/seconds and 2150000000 photons/seconds and 1030000000 photons/seconds and 5630000000 photons/seconds and 483000000 photons/seconds and 3670000000 photons/seconds and 83600000 photons/seconds and 685000000 photons/seconds (Qstat 10 mg/kg alone, day 22 post Tx start).

The record behind these values is publication PMC10721329, “Quisinostat is a brain-penetrant radiosensitizer in glioblastoma” (JCI Insight, 2023).
